The results in this text go back to article doi:10.1101/2023.11.22.568272, “Sec7 regulatory domains scaffold autoinhibited and active conformations” (bioRxiv, 2023).

Amino acid sequences for entries named in this document (tags omitted). A change or cut given only in a name is not applied to a line headed by its entry. Chains listed by the source or under a name are the forms on record and can include a tag or linker.
S. cerevisiae Sec7 L1376D/ΔD-loop double mutant (P11075, form named): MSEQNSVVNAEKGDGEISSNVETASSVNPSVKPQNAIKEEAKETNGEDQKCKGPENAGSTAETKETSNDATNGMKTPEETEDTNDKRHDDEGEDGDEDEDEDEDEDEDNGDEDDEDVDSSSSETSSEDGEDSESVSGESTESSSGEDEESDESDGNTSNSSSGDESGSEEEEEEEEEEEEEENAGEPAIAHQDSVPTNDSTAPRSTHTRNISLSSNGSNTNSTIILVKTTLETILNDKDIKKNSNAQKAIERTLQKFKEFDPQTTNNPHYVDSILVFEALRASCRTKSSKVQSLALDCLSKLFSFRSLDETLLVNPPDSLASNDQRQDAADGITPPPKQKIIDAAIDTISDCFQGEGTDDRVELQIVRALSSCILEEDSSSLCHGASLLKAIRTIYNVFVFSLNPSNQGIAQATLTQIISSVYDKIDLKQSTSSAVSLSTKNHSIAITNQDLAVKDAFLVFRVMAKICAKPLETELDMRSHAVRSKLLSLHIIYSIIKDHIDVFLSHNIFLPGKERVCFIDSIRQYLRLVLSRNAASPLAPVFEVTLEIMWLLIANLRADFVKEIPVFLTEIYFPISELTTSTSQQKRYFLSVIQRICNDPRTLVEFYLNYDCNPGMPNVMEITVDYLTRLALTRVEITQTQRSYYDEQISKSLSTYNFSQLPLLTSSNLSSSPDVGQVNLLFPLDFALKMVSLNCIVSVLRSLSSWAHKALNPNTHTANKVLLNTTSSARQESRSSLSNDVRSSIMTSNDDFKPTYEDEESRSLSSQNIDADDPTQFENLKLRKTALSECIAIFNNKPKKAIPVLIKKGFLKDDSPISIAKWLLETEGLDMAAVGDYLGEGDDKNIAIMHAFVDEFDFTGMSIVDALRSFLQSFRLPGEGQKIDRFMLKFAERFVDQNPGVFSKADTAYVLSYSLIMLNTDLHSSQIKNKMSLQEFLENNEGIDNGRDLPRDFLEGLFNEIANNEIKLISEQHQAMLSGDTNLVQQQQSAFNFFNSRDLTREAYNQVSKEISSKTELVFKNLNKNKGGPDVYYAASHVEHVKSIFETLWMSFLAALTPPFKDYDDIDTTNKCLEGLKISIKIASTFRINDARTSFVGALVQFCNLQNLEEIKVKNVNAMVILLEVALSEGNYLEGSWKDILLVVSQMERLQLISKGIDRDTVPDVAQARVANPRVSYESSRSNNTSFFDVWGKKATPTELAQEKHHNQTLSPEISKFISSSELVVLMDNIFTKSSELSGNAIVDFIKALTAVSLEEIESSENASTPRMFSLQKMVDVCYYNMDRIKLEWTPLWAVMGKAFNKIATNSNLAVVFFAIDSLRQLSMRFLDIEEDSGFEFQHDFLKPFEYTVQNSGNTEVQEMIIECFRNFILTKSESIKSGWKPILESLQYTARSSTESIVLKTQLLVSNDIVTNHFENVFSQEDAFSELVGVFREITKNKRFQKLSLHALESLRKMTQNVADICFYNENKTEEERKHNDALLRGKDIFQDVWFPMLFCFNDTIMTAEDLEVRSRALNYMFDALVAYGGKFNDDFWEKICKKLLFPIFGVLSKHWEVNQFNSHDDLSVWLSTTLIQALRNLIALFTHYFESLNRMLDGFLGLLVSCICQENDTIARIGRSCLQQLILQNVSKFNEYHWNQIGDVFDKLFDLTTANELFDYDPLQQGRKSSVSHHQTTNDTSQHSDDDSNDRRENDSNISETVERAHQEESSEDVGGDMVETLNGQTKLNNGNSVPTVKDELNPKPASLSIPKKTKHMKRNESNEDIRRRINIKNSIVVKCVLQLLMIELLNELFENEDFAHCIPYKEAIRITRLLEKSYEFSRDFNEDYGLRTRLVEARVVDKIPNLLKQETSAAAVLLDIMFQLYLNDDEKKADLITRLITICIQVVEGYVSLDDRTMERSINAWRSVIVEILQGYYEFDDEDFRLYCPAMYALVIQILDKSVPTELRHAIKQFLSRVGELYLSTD

These are yes or no findings as the source states them, for the method shown. Some entries that bind do so weakly or less than the wild type.

In this assay the target is T1, myristoylated Arf1-GTP (Arf1 loaded with GMPPNP on TGN-like liposomes) (S. cerevisiae) (UniProt P11076).
T1 sequence (chain, myristoylated; loaded with GMPPNP): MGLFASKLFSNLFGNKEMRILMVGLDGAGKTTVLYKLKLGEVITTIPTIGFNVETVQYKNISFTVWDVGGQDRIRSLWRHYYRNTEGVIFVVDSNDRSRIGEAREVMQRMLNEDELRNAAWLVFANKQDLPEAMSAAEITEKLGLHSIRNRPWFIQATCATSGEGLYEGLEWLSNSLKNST
Briefly: liposome flotation; 250 μM synthetic TGN-like liposomes pre-loaded with titrated molar ratios of myristoylated Arf1-GMPPNP by EDTA exchange; 550 nM Sec7 construct, room temperature 1 hour; flotation by ultracentrifugation under a sucrose gradient; SDS-PAGE and densitometry; both purified.

Regarding “S. cerevisiae Sec7 L1376D/ΔD-loop double mutant (from UniProt P11075 1-2009)”, the binding result was “binds”.
